# Experimental data published in US20060100431A1, “Biologically active compounds” (Amura Therapeutics Limited, priority 2002, published 2006).
# Some results were stated once for a whole list of compounds, not compound by compound. Some compounds share one range, which may span the group rather than tell each member.
# Target: T1, human cathepsin K (Homo sapiens, UniProt P43235)
# T1 construct: Dr. Boris Turk (Josef Stefan Institute, Ljubljana, Slovenia)
# T1 sequence (P43235 115-329): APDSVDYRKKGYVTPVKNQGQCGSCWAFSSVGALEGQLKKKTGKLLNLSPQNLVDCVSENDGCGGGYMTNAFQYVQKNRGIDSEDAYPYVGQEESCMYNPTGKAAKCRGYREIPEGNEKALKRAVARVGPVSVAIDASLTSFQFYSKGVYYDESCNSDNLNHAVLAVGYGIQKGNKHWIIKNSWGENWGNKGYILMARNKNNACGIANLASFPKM
# Assay: Cathepsin K peptidase activity assay (Ki)
# Assay type: biochemical
# Description: Unless otherwise stated, all general chemicals and biochemicals were purchased from either the Sigma Chemical Company, Poole, Dorset, U.K or from Fisher Scientific UK, Loughborough, Leicestershire, U.K. Absorbance assays were carried out in flat-bottomed 96-well plates (Spectra; Greiner Bio-One Ltd., Stonehouse, Gloucestershire, U.K.) using a SpectraMax PLUS384 plate reader (Molecular Devices, Crawley, U.K.). […] Fluorescence assays were monitored using a SpectraMax Gemini fluorescence plate reader (Molecular Devices). For substrates employing either a 7-amino-4-methylcoumarin (AMC) or a 7-amino-4-trifluoromethylcoumarin (AFC) fluorophore, assays were monitored at an excitation wavelength of 365 nm and an emission wavelength of 450 nm and the fluorescence plate reader calibrated with AMC. For substrates employing a 3-amino-benzoyl (Abz) fluorophore, assays were monitored at an excitation wavelength of 310 nm and an emission wavelength of 445 nm; the fluorescence plate reader calibrated with 3-amino-benzamide (Fluka). Unless otherwise indicated, all the peptidase substrates were purchased from Bachem UK, St Helens, Merseyside, UK. […] Hydroxyethylpiperazine ethanesulfonate (HEPES), tris-hydroxylmethyl aminomethane (tris) base, bis-tris-propane and all the biological detergents (e.g. CHAPS, zwittergents, etc.) were purchased from CN Biosciences UK, Beeston, Nottinghamshire, U.K. Glycerol was purchased from Amersham Pharmacia Biotech, Little Chalfont, Buckinghamshire, U.K. Stock solutions of substrate or inhibitor were made up to 10 mM in 100% dimethylsulfoxide (DMSO) (Rathburns, Glasgow, U.K.) and diluted as appropriately required. In all cases the DMSO concentration in the assays was maintained at less than 1% (vol./vol.).
# Enzyme was added as required to initiate the reaction and the activity, as judged by the change in fluorescence upon conversion of substrate to product, was monitored over time. All assays were carried out at 25±1° C.
# Bovine cathepsin S, human cathepsin L, human cathepsin H and human cathepsin B were obtained from CN Biosciences. Recombinant human cathepsin S, human cathepsin K and human cathepsin X were obtained from Dr. Boris Turk (Josef Stefan Institute, Ljubljana, Slovenia). Unless otherwise stated, all peptidase activity assays were carried out in 10 mM bis-tris-propane (BTP), pH 6.5 containing 1 mM EDTA, 5 mM 2-mercaptoethanol and 1 mM CaCl2.
# The apparent inhibition constant (Ki) for each compound was determined on the basis that inhibition was reversible and occurred by a pure-competitive mechanism. […] [formula]
# [formula] Ki^app=Ki(1+[So]/KM^app) (4)
# Curves were fitted by non-linear regression analysis (Prism) using a fixed value for the enzyme concentration.
row,SMILES,"Ki, inhibitors of cathepsin K"
1,"CC(C)C[C@H](NC(=O)c1ccc(N(C)C)cc1)C(=O)N1CC[C@@H]2[C@H]1C(=O)CN2C(=O)c1ccccc1F [Example 62, (3aR,6aS)-4-Dimethylamino-N-{(1S)-1-[4-(2-fluoro-benzoyl)-6-oxo-hexahydro-pyrrolo[3,2-b]pyrrole-1-carbonyl]-3-methyl-butyl}-benzamide]",1 to 5000 nM
2,"CC(C)C[C@H](NC(=O)c1ccc2ncsc2c1)C(=O)N1CC[C@@H]2[C@H]1C(=O)CN2C(=O)c1ccccc1 [Example 90, (3aR,6aS)-Benzothiazole-6-carboxylic acid [(1S)-1-(4-benzoyl-6-oxo-hexahydro-pyrrolo[3,2-b]pyrrole-1-carbonyl)-3-methyl-butyl]-amide]",1 to 5000 nM
3,"CC(C)C[C@H](NC(=O)c1ccc(CN)cc1)C(=O)N1CC[C@@H]2[C@H]1C(=O)CN2C(=O)c1ccccc1 [Example 93, (3aR,6aS)-4-Aminomethyl-N-[(1S)-1-(4-benzoyl-6-oxo-hexahydro-pyrrolo[3,2-b]pyrrole-1-carbonyl)-3-methyl-butyl]-benzamide]",1 to 5000 nM
4,"COc1ccccc1C(=O)N1CC(=O)[C@@H]2[C@H]1CCN2C(=O)[C@H](CC(C)C)NC(=O)c1ccc(N(C)C)cc1 [Example 64, (3aR,6aS)-4-Dimethylamino-N-{(1S)-1-[4-(2-methoxy-benzoyl)-6-oxo-hexahydro-pyrrolo[3,2-b]pyrrole-1-carbonyl]-3-methyl-butyl}-benzamide]",1 to 5000 nM
5,"CCCC(CCC)C(=O)N1CC(=O)[C@@H]2[C@H]1CCN2C(=O)[C@H](CC(C)C)NC(=O)c1ccc(N(C)C)cc1 [Example 232, (3aR,6aS)-4-Dimethylamino-N-{(1S)-3-methyl-1-[6-oxo-4-(2-propyl-pentanoyl)-hexahydro-pyrrolo[3,2-b]pyrrole-1-carbonyl]-butyl}-benzamide]",1 to 5000 nM
6,"CCCCCC(=O)N1CC(=O)[C@@H]2[C@H]1CCN2C(=O)[C@H](CC(C)C)NC(=O)c1ccc(N(C)C)cc1 [Example 234, (3aR,6aS)-4-Dimethylamino-N-[(1S)-1-(4-hexanoyl-6-oxo-hexahydro-pyrrolo[3,2-b]pyrrole-1-carbonyl)-3-methyl-butyl]-benzamide]",1 to 5000 nM
7,"CC(=O)NCCC(=O)N1CC(=O)[C@@H]2[C@H]1CCN2C(=O)[C@H](CC(C)C)NC(=O)c1ccc(N(C)C)cc1 [Example 202, (3aR,6aS)-N-{(1S)-1-[4-(3-Acetylamino-propionyl)-6-oxo-hexahydro-pyrrolo[3,2-b]pyrrole-1-carbonyl]-3-methyl-butyl}-4-dimethylamino-benzamide]",1 to 5000 nM
8,"CC(C)C[C@H](NC(=O)c1ccc(N(C)C)cc1)C(=O)N1CC[C@@H]2[C@H]1C(=O)CN2C(=O)CN1CCNCC1 [Example 241, (3aR,6aS)-4-Dimethylamino-N-{(1S)-3-methyl-1-[6-oxo-4-(2-piperazin-1-yl-acetyl)-hexahydro-pyrrolo[3,2-b]pyrrole-1-carbonyl]-butyl}-benzamide]",1 to 5000 nM
9,CC(C)C[C@H](NC(=O)c1ccc(C(C)(C)C)cc1)C(=O)N1CC[C@@H]2[C@H]1C(=O)CN2C(=O)c1csc2ccccc12 [Example 31],1 to 5000 nM
10,"CC(C)C[C@H](NC(=O)c1ccc(N(C)C)cc1)C(=O)N1CC[C@@H]2[C@H]1C(=O)CN2C(=O)C1CCCNC1 (stereo partly drawn) [Example 140, (3aR,6aS)-4-Dimethylamino-N-{(1S)-3-methyl-1-[6-oxo-4-(piperidine-3-carbonyl)-hexahydro-pyrrolo[3,2-b]pyrrole-1-carbonyl]-butyl}-benzamide]",1 to 5000 nM
11,"CC(C)C[C@H](NC(=O)c1ccc(N(C)C)cc1)C(=O)N1CC[C@@H]2[C@H]1C(=O)CN2C(=O)CS(C)(=O)=O [Example 144, (3aR,6aS)-4-Dimethylamino-N-{(1S)-1-[4-(2-methanesulfonyl-acetyl)-6-oxo-hexahydro-pyrrolo[3,2-b]pyrrole-1-carbonyl]-3-methyl-butyl}-benzamide]",1 to 5000 nM
12,"CC(C)C[C@H](NC(=O)c1ccc(N(C)C)cc1)C(=O)N1CC[C@@H]2[C@H]1C(=O)CN2C(=O)CC(F)(F)F [Example 124, (3aR,6aS)-4-Dimethylamino-N-{(1S)-3-methyl-1-[6-oxo-4-(3,3,3-trifluoro-propionyl)-hexahydro-pyrrolo[3,2-b]pyrrole-1-carbonyl]-butyl}-benzamide]",1 to 5000 nM
13,"CC(C)C[C@H](NC(=O)c1ccc(N(C)C)cc1)C(=O)N1CC[C@@H]2[C@H]1C(=O)CN2C(=O)c1ccoc1 [Example 97, (3aR,6aS)-4-Dimethylamino-N-{(1S)-1-[4-(furan-3-carbonyl)-6-oxo-hexahydro-pyrrolo[3,2-b]pyrrole-1-carbonyl]-3-methyl-butyl}-benzamide]",1 to 5000 nM
14,"CC(C)C[C@H](NC(=O)c1ccc(N(C)C)cc1)C(=O)N1CC[C@@H]2[C@H]1C(=O)CN2C(=O)[C@H]1CCCN1 [Example 157, (3aR,6aS)-4-Dimethylamino-N-{(1S)-3-methyl-1-[6-oxo-4-((2R)-pyrrolidine-2-carbonyl)-hexahydro-pyrrolo[3,2-b]pyrrole-1-carbonyl]-butyl}-benzamide]",1 to 5000 nM
15,"CC(C)C[C@H](NC(=O)c1cc2ccccc2s1)C(=O)N1CC[C@@H]2[C@H]1C(=O)CN2C(=O)c1ccccc1 [Example 7, (3aR,6aS)-Benzo[b]thiophene-2-carboxylic acid [(1S)-1-(4-benzoyl-6-oxo-hexahydro-pyrrolo[3,2-b]pyrrole-1-carbonyl)-3-methyl-butyl]-amide]",1 to 5000 nM
16,"CC(C)C[C@H](NC(=O)c1cccc(N(C)C)c1)C(=O)N1CC[C@@H]2[C@H]1C(=O)CN2C(=O)c1cccc(S(C)(=O)=O)c1 [Example 59, (3aR,6aS)-3-Dimethylamino-N-{(1S)-1-[4-(3-methanesulfonyl-benzoyl)-6-oxo-hexahydro-pyrrolo[3,2-b]pyrrole-1-carbonyl]-3-methyl-butyl}-benzamide]",1 to 5000 nM
17,"CC(C)C[C@H](NC(=O)c1cccc(CN)c1)C(=O)N1CC[C@@H]2[C@H]1C(=O)CN2S(=O)(=O)c1ccccc1 [Example 123, (3aR,6aS)-3-Aminomethyl-N-[(1S)-1-(4-benzenesulfonyl-6-oxo-hexahydro-pyrrolo[3,2-b]pyrrole-1-carbonyl)-3-methyl-butyl]-benzamide]",1 to 5000 nM
18,"CC(C)C[C@H](NC(=O)c1ccc(C(C)(C)C)cc1)C(=O)N1CC[C@@H]2[C@H]1C(=O)CN2C(=O)c1ccccc1Cc1ccccc1 [Example 36, (3aR,6aS)-N-{(1S)-1-[4-(2-Benzyl-benzoyl)-6-oxo-hexahydro-pyrrolo[3,2-b]pyrrole-1-carbonyl]-3-methyl-butyl}-4-tert-butyl-benzamide]",1 to 5000 nM
19,"CC(C)C[C@H](NC(=O)c1ccc(N(C)C)cc1)C(=O)N1CC[C@@H]2[C@H]1C(=O)CN2C(=O)Nc1ccccc1 [Example 167, (3aS,6aR)-4-[(2S)-2-(4-Dimethylamino-benzoylamino)-4-methyl-pentanoyl]-3-oxo-hexahydro-pyrrolo[3,2-b]pyrrole-1-carboxylic acid phenylamide]",1 to 5000 nM
20,"CC(C)C[C@H](NC(=O)c1ccc(N(C)C)cc1)C(=O)N1CC[C@@H]2[C@H]1C(=O)CN2C(=O)[C@H]1CCCN1C(=O)OCc1ccccc1 [Example 155, (3aS,6aR)-(2R)-2-{4-[(2S)-2-(4-Dimethylamino-benzoylamino)-4-methyl-pentanoyl]-3-oxo-hexahydro-pyrrolo[3,2-b]pyrrole-1-carbonyl}-pyrrolidine-1-carboxylic acid benzyl ester]",1 to 5000 nM
21,"CC(C)C[C@H](NC(=O)c1ccc(N(C)C)cc1)C(=O)N1CC[C@@H]2[C@H]1C(=O)CN2C(=O)N1CCCCC1 [Example 236, (3aR,6aS)-4-Dimethylamino-N-{(1S)-3-methyl-1-[6-oxo-4-(piperidine-1-carbonyl)-hexahydro-pyrrolo[3,2-b]pyrrole-1-carbonyl]-butyl}-benzamide]",1 to 5000 nM
